Test results taken from US20120077737A1, “HEPATITIS C INHIBITOR COMPOUNDS” (priority 2009, published 2012).
Some results were stated once for a whole list of compounds, not compound by compound.

Assays:
Conditions in all cases: statement in words
[1] = system: HCV genotype 1a subgenomic replicon with NS3 resistance mutation D168V; experiment: HCV replicon RNA replication assay, D168V 1a; format: cell-based, HCV genotype 1a (strain H77), Huh-7 cells
[2] = system: HCV genotype 1b subgenomic replicon with NS3 resistance mutation D168V; experiment: HCV replicon RNA replication assay, D168V 1b; format: cell-based, HCV genotype 1b (Con-1), Huh-7 cells
[3] = system: HCV genotype 1a subgenomic replicon with NS3 resistance mutation R155K; experiment: HCV replicon RNA replication assay, R155K 1a; format: cell-based, HCV genotype 1a (strain H77), Huh-7 cells

CC(C)Oc1cc(O[C@@H]2C[C@H]3C(=O)N[C@]4(C(=O)NS(=O)(=O)C5(C)CC5)C[C@H]4/C=C\CCCCC[C@H](NC(=O)c4ccn(C)n4)C(=O)N3C2)c2ccc(Cl)c(Cl)c2n1 [Compound 1025, (2R,6S,12Z,13aS,14aR,16aS)-2-{[7,8-dichloro-2-(propan-2-yloxy)quinolin-4-yl]oxy}-N-[(1-methylcyclopropyl)sulfonyl]-6-{[(1-methyl-1H-pyrazol-3-yl)carbonyl]amino}-5,16-dioxo-1,2,3,6,7,8,9,10,11,13a,14,15,16,16a-tetradecahydrocyclopropa[e]pyrrolo[1,2-a][1,4]diazacyclopentadecine-14a(5H)-carboxamide]
unexpectedly good cell-based potency: cell-based potency against genotype 1a D168V resistance mutation [1] | cell-based potency against genotype 1b D168V resistance mutation [2] | cell-based potency against genotype 1a R155K resistance mutation [3]

COc1c(F)ccc2c(O[C@@H]3C[C@H]4C(=O)N[C@]5(C(=O)NS(=O)(=O)C6(C)CC6)C[C@H]5/C=C\CCCCC[C@H](NC(=O)c5ccn(CC(F)(F)F)n5)C(=O)N4C3)cc(OC(C)C)nc12 [Compound 1026, (2R,6S,12Z,13aS,14aR,16aS)-2-{[7-fluoro-8-methoxy-2-(propan-2-yloxy)quinolin-4-yl]oxy}-N-[(1-methylcyclopropyl)sulfonyl]-5,16-dioxo-6-({[1-(2,2,2-trifluoroethyl)-1H-pyrazol-3-yl]carbonyl}amino)-1,2,3,6,7,8,9,10,11,13a,14,15,16,16a-tetradecahydrocyclopropa[e]pyrrolo[1,2-a][1,4]diazacyclopentadecine-14a(5H)-carboxamide]
unexpectedly good cell-based potency: cell-based potency against genotype 1a D168V resistance mutation [1] | cell-based potency against genotype 1b D168V resistance mutation [2] | cell-based potency against genotype 1a R155K resistance mutation [3]

COc1c(F)ccc2c(O[C@@H]3C[C@H]4C(=O)N[C@]5(C(=O)NS(=O)(=O)C6(C)CC6)C[C@H]5/C=C\CCCCC[C@H](NC(=O)c5ccn(C(F)F)n5)C(=O)N4C3)cc(OC(C)C)nc12 [Compound 1027, (2R,6S,12Z,13aS,14aR,16aS)-6-({[1-(difluoromethyl)-1H-pyrazol-3-yl]carbonyl}amino)-2-{[7-fluoro-8-methoxy-2-(propan-2-yloxy)quinolin-4-yl]oxy}-N-[(1-methylcyclopropyl)sulfonyl]-5,16-dioxo-1,2,3,6,7,8,9,10,11,13a,14,15,16,16a-tetradecahydrocyclopropa[e]pyrrolo[1,2-a][1,4]diazacyclopentadecine-14a(5H)-carboxamide]
unexpectedly good cell-based potency: cell-based potency against genotype 1a D168V resistance mutation [1] | cell-based potency against genotype 1b D168V resistance mutation [2] | cell-based potency against genotype 1a R155K resistance mutation [3]

COc1c(F)ccc2c(O[C@@H]3C[C@H]4C(=O)N[C@]5(C(=O)NS(=O)(=O)C6(C)CC6)C[C@H]5/C=C\CCCCC[C@H](NC(=O)c5ccc(C)s5)C(=O)N4C3)cc(OC(C)C)nc12 [Compound 1028, (2R,6S,12Z,13aS,14aR,16aS)-2-{[7-fluoro-8-methoxy-2-(propan-2-yloxy)quinolin-4-yl]oxy}-N-[(1-methylcyclopropyl)sulfonyl]-6-{[(5-methylthiophen-2-yl)carbonyl]amino}-5,16-dioxo-1,2,3,6,7,8,9,10,11,13a,14,15,16,16a-tetradecahydrocyclopropa[e]pyrrolo[1,2-a][1,4]diazacyclopentadecine-14a(5H)-carboxamide]
unexpectedly good cell-based potency: cell-based potency against genotype 1a D168V resistance mutation [1] | cell-based potency against genotype 1b D168V resistance mutation [2] | cell-based potency against genotype 1a R155K resistance mutation [3]

COc1ccc2c(O[C@@H]3C[C@H]4C(=O)N[C@]5(C(=O)NS(=O)(=O)C6(C)CC6)C[C@H]5/C=C\CCCCC[C@H](NC(=O)c5ccn(C)n5)C(=O)N4C3)cc(OCC(F)(F)F)nc2c1C [Compound 1029, (2R,6S,12Z,13aS,14aR,16aS)-2-{[7-methoxy-8-methyl-2-(2,2,2-trifluoroethoxy)quinolin-4-yl]oxy}-N-[(1-methylcyclopropyl)sulfonyl]-6-{[(1-methyl-1H-pyrazol-3-yl)carbonyl]amino}-5,16-dioxo-1,2,3,6,7,8,9,10,11,13a,14,15,16,16a-tetradecahydrocyclopropa[e]pyrrolo[1,2-a][1,4]diazacyclopentadecine-14a(5H)-carboxamide]
unexpectedly good cell-based potency: cell-based potency against genotype 1a D168V resistance mutation [1] | cell-based potency against genotype 1b D168V resistance mutation [2] | cell-based potency against genotype 1a R155K resistance mutation [3]
